# From the supplement of paper PMC12823440, “Inhibitors supercharge kinase turnover through native proteolytic circuits” (Nature, 2025)
# Protein sequences, listed by entry. Tags and fused reporters are not part of them. Lines headed by an entry give the natural chain unless they say otherwise; changes in a name come on top.
# UniProt Q96KB5: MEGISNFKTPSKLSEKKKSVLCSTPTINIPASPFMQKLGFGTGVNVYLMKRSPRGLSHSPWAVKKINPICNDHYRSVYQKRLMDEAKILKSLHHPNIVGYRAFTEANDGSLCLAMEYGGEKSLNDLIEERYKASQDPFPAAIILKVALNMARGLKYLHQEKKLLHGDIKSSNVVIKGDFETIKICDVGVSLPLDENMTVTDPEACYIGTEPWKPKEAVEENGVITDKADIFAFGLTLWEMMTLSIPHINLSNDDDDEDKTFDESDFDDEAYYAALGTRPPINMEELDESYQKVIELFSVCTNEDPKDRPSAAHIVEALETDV
# Counter-ions that a name gives are not always drawn. The list shows a part of the results. The calls rarely recur for the same compound in another form.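 Kinases were expressed as nanoluciferase fusions in K562 cells and luminescence was read every 4 h between 2 and 18 h as percent of control, DMSO set to 100% and a positive control to 0%. A time point counts as decreased when the signal drops significantly (2 sigma). The hit call is the authors' own, does not follow from the count of time points alone, and its rule is not shown.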
# Biological target: PBK (UniProt Q96KB5)
# Experiment: kinase-Nluc reporter destabilization hit call (1 = scored as downregulated) (binary); higher = compound decreases kinase abundance
# Settings: K562; 2-18 h
row,SMILES,kinase-Nluc reporter destabilization hit call
1,C=CC(=O)N1CCC[C@@H](n2c(=O)n(-c3ccc(Oc4ccccc4)cc3)c3c(N)nccc32)C1 [Tolebrutinib] (10 µM),inactive: 0
2,C[C@]1(O)C[C@@](N)(c2ccc(-c3nc4n(c3-c3ccccc3)COc3ccncc3-4)cc2)C1 [TAS-117 (hydrochloride)] (10 µM),inactive: 0
3,CCOC(=O)C1=C[C@]2(CC)CCCN3CCc4c(n1c1ccccc41)[C@@H]32 [Vinpocetine] (10 µM),inactive: 0
4,CC(C)(C)NS(=O)(=O)c1cncc(-c2cc(F)c3nc(N)nn3c2)c1 (10 µM),inactive: 0
5,CC(C)(C)c1ccc(C(=O)Nc2cn3cc(-n4ccnc4)ccc3n2)cc1 (10 µM),inactive: 0
6,Cc1nc(NC(=O)N2CCC[C@H]2C(N)=O)sc1-c1csc(C(C)(C)C)n1 (10 µM),inactive: 0
7,N#Cc1cn([C@@H]2O[C@H](CO)[C@@H](O)[C@H]2O)c2nc[nH]c(=O)c12 [Jaspamycin] (10 µM),inactive: 0
8,Cc1ccc(-c2csc(Cn3nc(CC4OCCCO4)c4ccccc4c3=O)n2)cc1 (10 µM),inactive: 0
9,CNC(=O)c1c(C)oc2cc(Oc3ncnc4cc(OC)c(OC)cc34)ccc12 [Fruquintinib] (10 µM),inactive: 0
10,O=S(=O)(N=Cc1c(O)ccc2ccccc12)c1cccs1 (10 µM),inactive: 0
11,NC(=O)c1cccc2c(N[C@H](CN3CCC3)c3ccc(Cl)c(C(F)(F)F)c3)ncnc12 (10 µM),inactive: 0
12,CN1CCC(c2ccccc2CC(C)(C)Nc2nc(N3CCOCC3)nc(-n3c(S(C)(=O)=O)nc4ccccc43)n2)CC1 (10 µM),inactive: 0
